Data reported in PubChem BioAssay AID743255 (National Center for Advancing Translational Sciences (NCATS), 2014).
In all, about 390,000 compounds went through this assay and about 910 (0.23%) were called active. The inconclusive results got no clear call from the source; some entries with a clear call stand among them for comparison. The call rests on the fitted dose curve; in most records, active means well fitted inhibition curve with a large enough effect; inconclusive means small, poorly fitted or top-dose-only effect; inactive means no such curve, though single readings can be large or run the other way. A potency beside an inconclusive call is a rough fit, not a confirmed value.
Further: nearly all actives have a fitted effect of over 60% in size.
On the % scale 0 is the no-effect control and ±100 the full control effect; potency means the concentration at half of the fitted maximal effect.

Protein sequences, listed by entry. Tags and fused reporters are not part of them. Lines headed by an entry give the natural chain unless they say otherwise; changes in a name come on top.
UniProt O94782: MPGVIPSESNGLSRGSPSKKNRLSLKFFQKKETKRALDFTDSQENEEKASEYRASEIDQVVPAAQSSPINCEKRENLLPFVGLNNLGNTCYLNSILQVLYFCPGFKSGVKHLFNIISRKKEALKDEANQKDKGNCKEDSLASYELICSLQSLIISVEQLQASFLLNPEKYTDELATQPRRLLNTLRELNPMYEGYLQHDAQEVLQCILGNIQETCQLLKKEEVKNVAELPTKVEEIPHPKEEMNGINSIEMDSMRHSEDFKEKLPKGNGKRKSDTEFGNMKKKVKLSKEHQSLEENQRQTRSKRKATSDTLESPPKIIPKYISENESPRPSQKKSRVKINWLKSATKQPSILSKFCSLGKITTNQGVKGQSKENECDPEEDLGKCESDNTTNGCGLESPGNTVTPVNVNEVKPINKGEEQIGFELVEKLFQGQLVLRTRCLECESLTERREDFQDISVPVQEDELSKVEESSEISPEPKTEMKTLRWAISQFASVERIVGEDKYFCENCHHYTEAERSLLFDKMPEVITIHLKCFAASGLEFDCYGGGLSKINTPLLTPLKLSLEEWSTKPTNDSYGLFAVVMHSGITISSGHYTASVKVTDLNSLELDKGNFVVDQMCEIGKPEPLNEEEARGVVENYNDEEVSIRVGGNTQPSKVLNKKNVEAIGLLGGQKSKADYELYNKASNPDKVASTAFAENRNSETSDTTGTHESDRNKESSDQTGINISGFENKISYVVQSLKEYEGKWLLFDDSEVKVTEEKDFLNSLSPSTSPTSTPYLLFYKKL

The compounds below were run against Ubiquitin carboxyl-terminal hydrolase 1 (Homo sapiens) (UniProt O94782) (assay: Inhibitors of USP1/UAF1: Primary Screen). Conditions: recombinant USP1/UAF1, Ub-Rhodamine cleavage fluorescence; activity change, negative = inhibition: at 57.1 µM (top of the series).
Method in brief: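 In this screen, compounds sit with the deubiquitinase complex (1nM) for 15 min at room temperature before Ub-Rho is added at 150nM final. Fluorescence rise is then followed for 6 reads every 60 seconds.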
For `CC1CCCC(C)N1S(=O)(=O)c1ccc(NC(=O)CNC2CCCC2)cc1` (stereo not drawn), the Potency was inconclusive: 35.5 µM [inhibitor, single point]. With `CCCc1ccc(O)c(N=Cc2cc(Br)cc(OCC)c2O)c1` the Potency was inconclusive: 28.2 µM [inhibitor, partial curve]. `CCOc1ccc(-c2ccc(/C=C3/C(=N)N4C(C)=CSC4=NC3=O)o2)c([N+](=O)[O-])c1` was tested, and the “activity change, negative = inhibition” value was inactive: -22.3%. `CCn1c(SCC(=O)Nc2ccc(OC)c(OC)c2)nnc1-c1cnccn1` was tested, and the “activity change, negative = inhibition” value was inactive: -9.98%. With `O=C(Cn1cnc2c(NCc3ccccc3)ncnc21)NCc1ccccc1` the Potency was inconclusive: 50.1 µM [inhibitor, partial curve, poor fit]. For `Cc1ccccc1Nc1nnc(SCC(=O)NC(=O)NCc2ccco2)s1`, the Potency was inconclusive: 44.7 µM [inhibitor, partial curve, poor fit]. In the case of `Cc1ccc(S(=O)(=O)c2nnn(-c3ccc(F)c(Cl)c3)c2N)cc1`, the Potency was inconclusive: 56.2 µM [inhibitor, single point]. With `COc1ccc(-n2nc3cc(C)c(NC(=O)c4ccc(-c5ccc(Cl)cc5)o4)cc3n2)cc1` the Potency was inconclusive: 3980 µM [inhibitor, partial curve, poor fit]. `CCc1ccc(C(=O)c2cn(CC(=O)Nc3cccc(OC)c3)c3cc4c(cc3c2=O)OCO4)cc1` was tested, and the Potency was inconclusive: 14.1 µM [inhibitor, partial curve, poor fit]. `CCCCC[C@@H](/C=C/C1C(=O)C=C[C@H]1C/C=C\CCCC(=O)O)OC(C)=O` (stereo partly drawn) was tested, and the “activity change, negative = inhibition” value was inactive: -19.4%. With `Cc1ccc(S(=O)(=O)CC(=O)N2CCN(c3ccc([N+](=O)[O-])cc3)CC2)cc1` the “activity change, negative = inhibition” value was inactive: -6.71%. `COc1ccc(C)cc1NC(=O)C1CCN(S(=O)(=O)c2cc(Br)cc3c2N(C(C)=O)CC3)CC1` was tested, and the Potency was inconclusive: 0.316 µM [inhibitor, full curve, poor fit]. With `COc1ccc(-c2cc(C(=O)NC3=NCCS3)c3ccccc3n2)cc1OC` the “activity change, negative = inhibition” value was inactive: -20%. In the case of `COc1cccc(CN(C)C(=O)c2cccc(S(=O)(=O)N3CCN(c4ccccc4)CC3)c2)c1`, the “activity change, negative = inhibition” value was inactive: -10.3%. With `CC(=O)N1CCN(C(=O)c2ccc3c(c2)OCO3)CC1` the Potency was inconclusive: 35.5 µM [inhibitor, partial curve, poor fit]. With `Cc1nn(C)c(C)c1S(=O)(=O)N1CCC(C(=O)NC(C)c2ccccc2)CC1` (stereo not drawn) the Potency was inconclusive: 0.708 µM [inhibitor, full curve, poor fit]. In the case of `CCOc1ccc(-n2nc3ccc(NC(=O)c4ccc(OC)c(Cl)c4)cc3n2)cc1`, the Potency was inconclusive: 39.8 µM [inhibitor, single point]. With `O=C(CC1N=C2c3ccccc3N=C(SCc3ccccc3Cl)N2C1=O)NCCc1ccccc1` (stereo not drawn) the Potency was inconclusive: 44.7 µM [inhibitor, partial curve, poor fit]. In the case of `CCOC(=O)C1=C(CS(=O)(=O)c2ccc(F)c(C)c2)NC(=O)NC1c1ccccc1OC` (stereo not drawn), the Potency was inconclusive: 17.8 µM [inhibitor, partial curve]. In the case of `Cc1cccc(NC(=O)CCn2cnc3ccccc3c2=O)c1`, the Potency was inconclusive: 20 µM [inhibitor, partial curve, poor fit]. `Cc1ccc(C2C(C(=O)c3cccs3)=C(O)C(=O)N2c2nnc(C)s2)cc1` (stereo not drawn) was tested, and the Potency was inconclusive: 2.82 µM [inhibitor, full curve, poor fit]. `COCc1cc(C)nc2c1C(=O)NC(c1ccc(F)cc1)N2Cc1ccccc1` (stereo not drawn) was tested, and the Potency was inconclusive: 35.5 µM [inhibitor, partial curve, poor fit]. For `CCOc1cccc2sc(NN)nc12`, the “activity change, negative = inhibition” value was inactive: -9.09%. For `O=C(Nc1c(Cl)cccc1Cl)c1cc(-c2ccco2)on1`, the Potency was inconclusive: 44.7 µM [inhibitor, single point]. With `CCOC(=O)C1=C(CN2CCN(c3ccccc3OC)CC2)NC(=O)NC1c1ccccc1` (stereo not drawn) the Potency was inconclusive: 11.2 µM [inhibitor, full curve, poor fit]. In the case of `COC(=O)c1cc(NC(=O)c2cc(-c3ccc(OC)cc3)oc2C(F)(F)F)ccc1N1CCOCC1`, the “activity change, negative = inhibition” value was inactive: -18.6%. For `CC[C@]12c3[nH]c4cc(CCC(=O)N(C)C)ccc4c3CCN1C(=O)[C@@H](CC(=O)NCCN1CCOCC1)C[C@@H]2C(=O)N1CCN(C(=O)c2ccco2)CC1`, the Potency was inconclusive: 0.316 µM [inhibitor, full curve, poor fit]. For `CCOC(=O)CC1(c2ccc(OC)c(OC)c2)C(=O)c2ccccc2C1=O`, the Potency was inconclusive: 5.01 µM [inhibitor, partial curve]. For `CCOC(=O)CSc1nc(C)c(CC)c(C)c1C(N)=O`, the “activity change, negative = inhibition” value was inactive: -9.78%. `Cc1ccccc1CSc1cn(CC(=O)N2CCCCC2)c2ccccc12` was tested, and the Potency was inconclusive: 1.41 µM [inhibitor, full curve]. In the case of `COC(=O)c1cc(S(=O)(=O)N2c3ccccc3CC2C)c[nH]1` (stereo not drawn), the “activity change, negative = inhibition” value was inactive: -4.98%. For `O=C(NCc1c(Cl)cccc1Oc1ccccc1)c1ccccc1`, the Potency was inconclusive: 39.8 µM [inhibitor, partial curve, poor fit]. `Cc1ccc([C@@H]2C[C@H]3[C@@H](CN2S(=O)(=O)c2ccc(C)cc2)C(=O)C[C@@H](c2ccccc2)N3S(=O)(=O)c2ccc(C)cc2)cc1` was tested, and the “activity change, negative = inhibition” value was inactive: -13.1%. In the case of `N#CCCC(C#N)(c1cccnc1)N1CCOCC1` (stereo not drawn), the Potency was inconclusive: 5.01 µM [inhibitor, partial curve]. `c1ccc(-c2csc(Nc3cccnc3)n2)cc1` was tested, and the Potency was inconclusive: 10 µM [inhibitor, partial curve, poor fit]. In the case of `CCc1cccc(NC(=O)CN(c2ccc(C)c(C)c2)S(=O)(=O)c2ccsc2C(=O)OC)c1`, the “activity change, negative = inhibition” value was inactive: -10.4%. `CCc1ccc(-c2cc(C(=O)NN3CCOCC3)c3ccccc3n2)s1` was tested, and the Potency was inconclusive: 12.6 µM [inhibitor, partial curve, poor fit]. `CCCC(=O)Nc1cc2nn(-c3ccccc3)nc2cc1C` was tested, and the Potency was inconclusive: 15.8 µM [inhibitor, partial curve]. `COc1ccccc1NC(=O)/C(C#N)=C/c1ccncc1` was tested, and the “activity change, negative = inhibition” value was inactive: -21.7%. `CCc1nnc(NC(=O)CCC(=O)N2CCN(C3c4ccccc4-c4ccccc43)CC2)s1` was tested, and the Potency was inconclusive: 70.8 µM [inhibitor, partial curve, poor fit]. With `COC(=O)C1C(C(=O)OC)C1(c1ccccc1)c1ccccc1` (stereo not drawn) the “activity change, negative = inhibition” value was inactive: 0.466%. With `Cc1ccc(NC(=O)C2CCCN(S(=O)(=O)c3cccc4nsnc34)C2)cc1C` (stereo not drawn) the Potency was inconclusive: 4.47 µM [inhibitor, partial curve]. For `OC[C@H]1OC(O)[C@H](O)[C@@H](O)[C@H]1O` (stereo partly drawn), the Potency was inconclusive: 15.8 µM [inhibitor, partial curve, poor fit]. In the case of `CCCN1CCN(c2nnc(-n3cccc3C(=O)Nc3cc(Cl)ccc3C)s2)CC1`, the Potency was inconclusive: 5.01 µM [inhibitor, partial curve]. In the case of `c1ccc(CCNc2ccc3c(c2)Cc2ccccc2-3)nc1`, the Potency was inconclusive: 12.6 µM [inhibitor, partial curve]. With `Cc1ccc(C(C)C)c(OCc2nn(CC(=O)c3ccc(OC(F)F)cc3)c3[n+]2CCCCC3)c1` the Potency was inconclusive: 3.55 µM [inhibitor, full curve, poor fit]. With `COC(=O)c1scc(-c2ccc(C)cc2)c1S(=O)(=O)Nc1cc(Cl)c(OC)cc1OC` the Potency was inconclusive: 0.0447 µM [inhibitor, full curve, poor fit]. `O=C(CSc1nc2sc3c(c2c(=O)[nH]1)CCCC3)NCCO` was tested, and the Potency was inconclusive: 70.8 µM [inhibitor, partial curve, poor fit]. With `COc1ccccc1OCCOc1ccc(/C=N/n2cnnc2)cc1` the Potency was inconclusive: 35.5 µM [inhibitor, partial curve, poor fit]. `O=c1ccc2cc(S(=O)(=O)Nc3ccc(F)c(Cl)c3)ccc2[nH]1` was tested, and the Potency was inconclusive: 0.251 µM [inhibitor, full curve, poor fit]. With `C=CC[C@@H](Cc1ccc(F)cc1)C(=O)OC[C@@H]1CCCN1C(=O)[C@H](CC=C)CC(=O)N[C@H](CO)Cc1ccccc1` the Potency was inconclusive: 3.55 µM [inhibitor, full curve]. With `Cc1cc(C)cc(N2C(=O)CN(Cc3ccccc3)C2=S)c1` the “activity change, negative = inhibition” value was inactive: -24.4%. In the case of `CN1c2ccc(C=O)c3c(C=O)ccc(c23)N(C)C1(C)C`, the Potency was inconclusive: 44.7 µM [inhibitor, partial curve, poor fit]. `COc1ccccc1NC(=O)CSC1=Nc2ccccc2C2=NC(CCC(=O)NCc3ccco3)C(=O)N12` (stereo not drawn) was tested, and the Potency was inconclusive: 8.91 µM [inhibitor, partial curve]. With `Cc1ccc(C(=O)NCc2ccco2)cc1[N+](=O)[O-]` the “activity change, negative = inhibition” value was inactive: 4.64%. For `Cc1c(N=C2C(=O)Nc3ccccc32)c(=O)n(-c2ccccc2)n1C`, the Potency was inconclusive: 31.6 µM [inhibitor, partial curve]. With `COc1ccccc1C1CCN(c2cc(O)ccc2[N+](=O)[O-])CC1` the “activity change, negative = inhibition” value was inactive: -9.68%. For `CCOC(=O)Cc1ccc(NC(=O)N2CCSc3ccccc32)cc1`, the Potency was inconclusive: 0.282 µM [inhibitor, full curve, poor fit]. For `Cc1ccc2sc(NNC(=O)c3cc(=O)c4ccccc4o3)nc2c1C`, the Potency was active: 31.6 µM. With `NS(=O)(=O)c1ccc(N/C=C\C(=O)c2ccncc2)cc1` the Potency was inconclusive: 0.398 µM [inhibitor, full curve, poor fit]. `CC(C)(C)n1nnnc1C(c1cccs1)N1CCN(Cc2ccccc2)CC1` (stereo not drawn) was tested, and the Potency was inconclusive: 31.6 µM [inhibitor, single point]. For `CC(=O)N1CSCC1C(=O)N1CCN(c2ccc(N3CCOCC3)nn2)CC1` (stereo not drawn), the Potency was inconclusive: 31.6 µM [inhibitor, partial curve]. `O=C(Nc1cccc(Cl)c1Cl)c1ccco1` was tested, and the Potency was inconclusive: 0.251 µM [inhibitor, full curve, poor fit].
